Data from paper doi:10.1101/2020.01.10.902387.
Results are given in words; binding and its absence hold for the method and conditions named. In cells and extracts the contact can be indirect. Some results given as binding are weak or reduced against the parent protein; the word gives no strength. For some of these results: Sequences can lack the tags named with a protein.

Key:
Assay in all cases: pull-down
[1] = target: GST-FliJ (Salmonella enterica serovar Typhimurium) (UniProt P0A1K1)
[2] = target: (His)6-FliJ (Salmonella enterica serovar Typhimurium) (UniProt P0A1K1)
[3] = target: T1, GST-FliD (Salmonella enterica serovar Typhimurium) (UniProt P16328)
T1 sequence: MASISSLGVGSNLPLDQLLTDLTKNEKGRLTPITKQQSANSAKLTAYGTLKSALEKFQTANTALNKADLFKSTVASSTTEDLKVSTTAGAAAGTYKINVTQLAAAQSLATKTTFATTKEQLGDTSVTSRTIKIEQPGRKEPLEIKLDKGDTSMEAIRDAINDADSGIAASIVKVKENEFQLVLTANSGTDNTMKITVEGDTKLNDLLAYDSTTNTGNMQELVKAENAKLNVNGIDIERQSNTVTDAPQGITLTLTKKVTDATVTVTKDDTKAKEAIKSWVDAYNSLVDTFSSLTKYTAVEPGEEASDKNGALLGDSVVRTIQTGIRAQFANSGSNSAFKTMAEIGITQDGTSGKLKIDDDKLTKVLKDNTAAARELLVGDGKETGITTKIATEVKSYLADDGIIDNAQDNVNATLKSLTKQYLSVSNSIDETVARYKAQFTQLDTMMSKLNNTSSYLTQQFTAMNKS

Substance | binding [1] | binding [2] | binding [3]
FlgNΔ76-78 (from UniProt P0A1J7 1-140) | no binding | – | –
FlgNΔ90-100 (from UniProt P0A1J7 1-140) | no binding | – | –
FliT94 (from UniProt P0A1N2 1-94) (domain or fragment) | binds | binds | –
FliT94-L72A (from UniProt P0A1N2 1-94) (domain or fragment) | – | no binding | binds
full-length FliT-L72A (from UniProt P0A1N2 1-122) | no binding | – | binds
wild type FlgN (from UniProt P0A1J7 1-140) | binds | – | –
wild type FliT (from UniProt P0A1N2 1-122) | – | – | binds
